Data published in PMC6824563.
These are yes or no findings as the source states them, for the method shown. Binding seen in cells or lysates may run through a third protein. Tags and fused reporters may be left off the sequences shown.

Assays:
[1] = biological target: HA::CEH-60(ΔPBC)::VC155 (CEH-60 with truncated PBC domain) (C. elegans); test: split reporter; BiFC with Venus halves (VN173 on UNC-62, VC155 on the partner) under the heat-shock promoter hsp-16.41p in living day 1 adult C. elegans; heat shock 2 hours at 33°C, imaged 5-6 hours later; fluorescence quantified in 6 intestinal nuclei per animal
[2] = biological target: HA::CEH-60(ΔPBC)::VC155 (CEH-60 with truncated PBC domain) (C. elegans); test: co-IP; anti-HA agarose beads with lysate of the heat-shock inducible BiFC strains (at least 4 mg worm protein), 4°C overnight; lysis buffer 25 mM Tris-HCl pH 7.5, 100 mM NaCl, 1 mM EDTA, 0.5% NP-40; western blot with anti-HA and anti-MYC

B1: MYC::UNC-62::VN173 (UNC-62, uncoordinated 62, MEIS-class transcription factor) (protein, UniProt Q9N5D6 1-564)
chain: MSGDSKVWAHASADTWAVQNGISTYDLDTSSIKREKRDHNEQFNDGYGPPPGSASADPASYIADPAAFYNLYTNMGGAPTSTPMMHHEMGEAMKRDKESIYAHPLYPLLVLLFEKCELATSTPRDTSRDGSTSSDVCSSASFKDDLNEFVRHTQENADKQYYVPNPQLDQIMLQSIQMLRFHLLELEKVHELCDNFCNRYVVCLKGKMPLDIVGDERASSSQPPMSPGSMGHLGHSSSPSMAGGATPMHYPPPYEPQSVPLPENAGVMGGHPMEGSSMAYSMAGMAAAAASSSSSSNQAGDHPLANGGTLHSTAGASQTLLPIAVSSPSTCSSGGLRQDSTPLSGETPMGHANGNSMDSISEAGDEFSVCGSNDDGRDSVLSDSANGSQNGKRKVPKVFSKEAITKFRAWLFHNLTHPYPSEEQKKQLAKETGLTILQVNNWFINARRRIVQPMIDQNNRAGRSGQMNVCKNRRRNRSEQSPGPSPDSGSDSGANYSPDPSSLAASTAMPYPAEFYMQRTMPYGGFPSFTNPAMPFMNPMMGFQVAPTVDALSQQWVDLSAPHE
For B1, the binding [1] was “no binding” and the binding [2] was “no binding”.
